Our source for the log2 fold change values is the supplement of paper PMC12819154, “High-throughput peptide-centric local stability assay extends protein–ligand identification to membrane proteins, tissues and bacteria” (Nature Structural & Molecular Biology, 2025).

By UniProt entry, the sequences of proteins in these tests, tags left out. Where a name states a change or a piece, a line headed by the entry shows the natural chain unless it says otherwise.
UniProt P31146: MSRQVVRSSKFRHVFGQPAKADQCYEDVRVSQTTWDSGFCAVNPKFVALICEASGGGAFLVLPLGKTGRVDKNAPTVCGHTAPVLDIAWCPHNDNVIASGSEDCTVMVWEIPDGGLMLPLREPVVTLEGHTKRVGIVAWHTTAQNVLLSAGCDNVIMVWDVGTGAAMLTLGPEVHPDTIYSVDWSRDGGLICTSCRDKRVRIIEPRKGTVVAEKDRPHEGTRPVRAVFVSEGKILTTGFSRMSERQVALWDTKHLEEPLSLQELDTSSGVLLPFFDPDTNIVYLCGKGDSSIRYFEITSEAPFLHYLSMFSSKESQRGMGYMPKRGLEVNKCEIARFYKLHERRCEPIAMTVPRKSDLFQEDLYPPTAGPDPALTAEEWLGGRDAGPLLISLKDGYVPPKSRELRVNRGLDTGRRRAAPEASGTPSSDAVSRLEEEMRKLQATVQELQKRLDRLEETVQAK
UniProt P41214: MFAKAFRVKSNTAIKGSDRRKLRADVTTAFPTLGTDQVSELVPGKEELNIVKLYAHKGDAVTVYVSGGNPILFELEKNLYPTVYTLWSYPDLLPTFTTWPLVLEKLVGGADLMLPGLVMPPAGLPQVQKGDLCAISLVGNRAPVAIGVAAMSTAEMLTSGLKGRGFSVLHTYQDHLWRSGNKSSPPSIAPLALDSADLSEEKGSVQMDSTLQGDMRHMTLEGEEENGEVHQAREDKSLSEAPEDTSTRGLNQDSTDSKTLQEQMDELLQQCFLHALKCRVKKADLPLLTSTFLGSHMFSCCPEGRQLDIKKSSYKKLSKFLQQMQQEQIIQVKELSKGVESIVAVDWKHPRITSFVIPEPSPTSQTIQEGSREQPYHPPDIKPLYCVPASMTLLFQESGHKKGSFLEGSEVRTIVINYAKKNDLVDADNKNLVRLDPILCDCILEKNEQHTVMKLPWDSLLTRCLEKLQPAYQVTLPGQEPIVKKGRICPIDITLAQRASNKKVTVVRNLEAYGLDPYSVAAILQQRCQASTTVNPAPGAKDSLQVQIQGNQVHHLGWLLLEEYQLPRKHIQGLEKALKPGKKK
UniProt P30044: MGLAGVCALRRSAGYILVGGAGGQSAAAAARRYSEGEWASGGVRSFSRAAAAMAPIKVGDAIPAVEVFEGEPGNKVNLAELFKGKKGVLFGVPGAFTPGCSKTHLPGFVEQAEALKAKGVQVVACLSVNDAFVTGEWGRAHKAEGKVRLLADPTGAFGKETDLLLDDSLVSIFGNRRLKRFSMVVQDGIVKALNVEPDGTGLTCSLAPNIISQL
UniProt P40763, whole entry: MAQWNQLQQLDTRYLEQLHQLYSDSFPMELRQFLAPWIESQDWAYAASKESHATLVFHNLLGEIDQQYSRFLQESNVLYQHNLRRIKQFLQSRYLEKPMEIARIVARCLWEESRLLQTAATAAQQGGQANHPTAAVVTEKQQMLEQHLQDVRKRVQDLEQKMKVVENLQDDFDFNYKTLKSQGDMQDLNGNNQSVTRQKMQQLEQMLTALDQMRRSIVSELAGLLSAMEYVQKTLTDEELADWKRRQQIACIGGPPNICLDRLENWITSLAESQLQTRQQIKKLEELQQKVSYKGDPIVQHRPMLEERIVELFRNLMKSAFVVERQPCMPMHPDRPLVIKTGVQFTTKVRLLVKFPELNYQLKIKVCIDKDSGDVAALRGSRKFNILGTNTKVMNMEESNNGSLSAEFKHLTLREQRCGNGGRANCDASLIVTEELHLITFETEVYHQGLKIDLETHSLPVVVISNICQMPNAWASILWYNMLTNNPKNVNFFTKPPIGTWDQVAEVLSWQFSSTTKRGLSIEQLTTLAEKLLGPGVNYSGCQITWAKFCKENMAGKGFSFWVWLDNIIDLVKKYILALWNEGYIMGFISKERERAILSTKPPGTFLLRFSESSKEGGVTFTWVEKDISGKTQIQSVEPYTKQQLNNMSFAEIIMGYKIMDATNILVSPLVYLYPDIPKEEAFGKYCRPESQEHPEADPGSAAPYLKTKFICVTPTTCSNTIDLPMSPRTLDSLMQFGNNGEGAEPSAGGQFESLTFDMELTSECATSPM
UniProt P42331: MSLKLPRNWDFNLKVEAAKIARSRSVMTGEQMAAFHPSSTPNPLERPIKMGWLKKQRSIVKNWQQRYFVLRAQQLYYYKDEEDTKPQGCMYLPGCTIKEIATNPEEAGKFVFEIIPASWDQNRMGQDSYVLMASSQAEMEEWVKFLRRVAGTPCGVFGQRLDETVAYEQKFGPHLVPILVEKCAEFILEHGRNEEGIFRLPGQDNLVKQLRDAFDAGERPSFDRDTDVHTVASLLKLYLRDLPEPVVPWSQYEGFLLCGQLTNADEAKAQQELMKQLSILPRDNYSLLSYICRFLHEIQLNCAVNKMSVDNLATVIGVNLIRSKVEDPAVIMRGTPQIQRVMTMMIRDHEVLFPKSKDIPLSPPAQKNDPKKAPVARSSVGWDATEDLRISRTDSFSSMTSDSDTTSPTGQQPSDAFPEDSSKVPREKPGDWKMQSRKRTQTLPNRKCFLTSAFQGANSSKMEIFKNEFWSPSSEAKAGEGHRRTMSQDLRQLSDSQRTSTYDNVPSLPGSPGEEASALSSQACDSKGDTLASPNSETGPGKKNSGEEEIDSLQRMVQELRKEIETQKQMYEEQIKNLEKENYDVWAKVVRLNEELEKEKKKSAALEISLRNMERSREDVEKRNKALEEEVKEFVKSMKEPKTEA
UniProt P30613: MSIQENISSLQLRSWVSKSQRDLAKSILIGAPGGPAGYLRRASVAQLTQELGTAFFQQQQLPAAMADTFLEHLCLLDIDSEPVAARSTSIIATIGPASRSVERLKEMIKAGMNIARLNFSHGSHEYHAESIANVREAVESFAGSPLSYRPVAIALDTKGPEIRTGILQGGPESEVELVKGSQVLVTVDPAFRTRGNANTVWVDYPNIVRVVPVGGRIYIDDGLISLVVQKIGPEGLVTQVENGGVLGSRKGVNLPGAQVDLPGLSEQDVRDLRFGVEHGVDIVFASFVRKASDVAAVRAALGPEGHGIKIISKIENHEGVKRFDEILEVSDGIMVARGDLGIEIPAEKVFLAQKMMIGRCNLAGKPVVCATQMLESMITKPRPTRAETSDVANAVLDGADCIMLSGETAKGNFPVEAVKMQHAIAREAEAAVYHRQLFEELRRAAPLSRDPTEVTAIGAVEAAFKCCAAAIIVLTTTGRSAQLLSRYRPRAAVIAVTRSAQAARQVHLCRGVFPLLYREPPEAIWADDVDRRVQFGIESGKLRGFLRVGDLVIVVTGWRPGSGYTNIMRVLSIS
UniProt P37837: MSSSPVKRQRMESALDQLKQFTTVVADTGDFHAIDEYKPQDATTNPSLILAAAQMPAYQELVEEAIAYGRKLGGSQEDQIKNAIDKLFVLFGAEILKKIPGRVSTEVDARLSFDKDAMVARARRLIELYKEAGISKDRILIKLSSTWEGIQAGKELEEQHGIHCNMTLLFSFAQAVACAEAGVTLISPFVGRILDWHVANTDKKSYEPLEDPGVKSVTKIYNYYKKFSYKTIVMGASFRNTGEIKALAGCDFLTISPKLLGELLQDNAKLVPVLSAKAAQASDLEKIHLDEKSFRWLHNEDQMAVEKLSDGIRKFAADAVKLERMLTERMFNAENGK
UniProt P45985: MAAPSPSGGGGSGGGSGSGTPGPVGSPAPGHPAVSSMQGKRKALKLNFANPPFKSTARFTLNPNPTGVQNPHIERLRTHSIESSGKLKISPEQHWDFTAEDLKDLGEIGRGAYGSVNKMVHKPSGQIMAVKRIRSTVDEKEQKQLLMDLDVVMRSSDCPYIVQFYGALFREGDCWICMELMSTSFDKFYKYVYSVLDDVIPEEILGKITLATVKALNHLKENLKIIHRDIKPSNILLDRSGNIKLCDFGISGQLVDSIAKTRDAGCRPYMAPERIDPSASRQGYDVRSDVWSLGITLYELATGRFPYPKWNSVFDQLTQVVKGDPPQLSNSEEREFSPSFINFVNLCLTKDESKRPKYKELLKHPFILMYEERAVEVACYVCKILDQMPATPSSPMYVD
UniProt P42768: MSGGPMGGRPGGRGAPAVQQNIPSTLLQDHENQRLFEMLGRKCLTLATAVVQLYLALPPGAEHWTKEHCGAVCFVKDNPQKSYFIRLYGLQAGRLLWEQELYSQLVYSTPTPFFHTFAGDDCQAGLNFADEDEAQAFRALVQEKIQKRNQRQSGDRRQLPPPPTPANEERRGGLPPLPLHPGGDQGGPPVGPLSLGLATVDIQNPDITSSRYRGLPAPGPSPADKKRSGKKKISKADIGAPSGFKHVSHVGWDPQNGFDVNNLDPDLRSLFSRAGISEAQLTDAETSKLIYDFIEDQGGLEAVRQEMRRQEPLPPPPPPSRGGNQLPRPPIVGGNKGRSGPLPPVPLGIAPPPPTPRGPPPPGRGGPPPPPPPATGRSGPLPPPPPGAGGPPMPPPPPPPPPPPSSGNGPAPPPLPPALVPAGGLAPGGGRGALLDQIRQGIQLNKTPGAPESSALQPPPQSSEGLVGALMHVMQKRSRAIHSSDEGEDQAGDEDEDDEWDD
UniProt P40337, whole entry, looked up: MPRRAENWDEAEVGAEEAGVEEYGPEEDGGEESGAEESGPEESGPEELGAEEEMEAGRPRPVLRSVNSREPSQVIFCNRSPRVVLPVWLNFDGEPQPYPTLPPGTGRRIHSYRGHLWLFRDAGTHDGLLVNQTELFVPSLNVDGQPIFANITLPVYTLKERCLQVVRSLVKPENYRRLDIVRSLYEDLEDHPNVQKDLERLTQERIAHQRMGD
UniProt P30307: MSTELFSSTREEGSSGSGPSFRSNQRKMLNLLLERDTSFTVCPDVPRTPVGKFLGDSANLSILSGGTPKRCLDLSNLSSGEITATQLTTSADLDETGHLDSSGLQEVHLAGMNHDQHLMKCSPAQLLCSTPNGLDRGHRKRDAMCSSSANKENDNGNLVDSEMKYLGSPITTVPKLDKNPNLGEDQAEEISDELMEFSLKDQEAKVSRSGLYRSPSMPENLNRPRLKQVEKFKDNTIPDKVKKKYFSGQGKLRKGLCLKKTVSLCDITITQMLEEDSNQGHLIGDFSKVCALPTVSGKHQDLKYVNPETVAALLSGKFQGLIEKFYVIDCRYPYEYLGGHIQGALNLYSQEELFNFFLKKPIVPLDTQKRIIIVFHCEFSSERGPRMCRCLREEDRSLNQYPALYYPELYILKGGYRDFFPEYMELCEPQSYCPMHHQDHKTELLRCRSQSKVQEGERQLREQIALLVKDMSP
UniProt P33552, whole entry: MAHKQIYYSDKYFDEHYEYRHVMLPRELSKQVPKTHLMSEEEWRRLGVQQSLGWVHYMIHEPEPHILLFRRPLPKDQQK
UniProt P41223: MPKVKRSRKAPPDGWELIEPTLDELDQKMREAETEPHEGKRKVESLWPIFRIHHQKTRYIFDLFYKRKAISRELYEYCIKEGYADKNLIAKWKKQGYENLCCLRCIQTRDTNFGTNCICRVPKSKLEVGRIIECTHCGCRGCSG
UniProt P31040: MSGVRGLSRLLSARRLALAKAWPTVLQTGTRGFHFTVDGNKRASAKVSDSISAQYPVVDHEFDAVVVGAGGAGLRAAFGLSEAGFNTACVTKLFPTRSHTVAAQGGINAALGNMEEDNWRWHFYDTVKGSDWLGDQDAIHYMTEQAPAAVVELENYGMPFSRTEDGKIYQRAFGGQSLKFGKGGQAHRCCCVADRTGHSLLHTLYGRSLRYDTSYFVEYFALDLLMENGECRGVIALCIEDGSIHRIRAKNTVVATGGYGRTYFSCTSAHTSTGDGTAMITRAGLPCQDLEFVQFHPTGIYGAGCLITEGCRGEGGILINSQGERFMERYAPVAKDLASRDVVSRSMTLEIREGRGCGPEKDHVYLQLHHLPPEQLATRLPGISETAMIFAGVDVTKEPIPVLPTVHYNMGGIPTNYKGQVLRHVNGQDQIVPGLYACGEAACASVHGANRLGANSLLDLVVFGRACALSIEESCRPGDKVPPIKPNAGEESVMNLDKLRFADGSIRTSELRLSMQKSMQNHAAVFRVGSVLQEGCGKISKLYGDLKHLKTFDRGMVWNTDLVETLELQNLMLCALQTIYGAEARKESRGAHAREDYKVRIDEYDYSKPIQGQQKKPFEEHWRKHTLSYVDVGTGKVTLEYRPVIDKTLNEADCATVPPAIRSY
UniProt P31943: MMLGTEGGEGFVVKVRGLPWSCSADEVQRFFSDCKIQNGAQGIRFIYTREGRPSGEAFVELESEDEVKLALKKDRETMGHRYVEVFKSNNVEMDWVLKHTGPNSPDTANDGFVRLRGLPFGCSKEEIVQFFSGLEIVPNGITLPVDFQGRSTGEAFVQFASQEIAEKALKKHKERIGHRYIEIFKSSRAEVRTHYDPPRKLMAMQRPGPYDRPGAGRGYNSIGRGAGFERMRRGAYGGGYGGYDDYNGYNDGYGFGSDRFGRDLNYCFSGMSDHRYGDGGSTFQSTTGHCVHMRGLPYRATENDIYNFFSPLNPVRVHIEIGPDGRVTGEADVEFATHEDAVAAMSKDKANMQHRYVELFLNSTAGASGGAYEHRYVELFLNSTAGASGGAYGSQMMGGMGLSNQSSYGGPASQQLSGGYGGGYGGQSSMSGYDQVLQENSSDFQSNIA

The list shows a part of the results. Most values lie at the level of the controls, where differences are scatter.

Compound in this assay: Cc1nc(Nc2ncc(C(=O)Nc3c(C)cccc3Cl)s2)cc(N2CCN(CCO)CC2)n1 [dasatinib]
The experiment in a line: log2 fold change of tryptic peptide abundance, ligand vs vehicle (limited proteolysis) (log2 ratio); higher = more trypsin-susceptible (destabilized). The following applies: ligand concentration: 5 uM; sample: K562 cleared lysate.
On to “CORO1A (peptide sequence: DGGLICTSCR, peptide start residue: 187) (UniProt P31146)”, for which the log2 fold change came out at 0.604.

Take “UniProt P41214 (peptide sequence: GLNQDSTDSK, peptide start residue: 249)”: the log2 fold change came to 0.187.

“SLC7A1 (peptide sequence: VLLNIGQQMLR, peptide start residue: 5) (UniProt P30825)”: the log2 fold change was found to be 0.228.

In the case of “PRDX5 (peptide sequence: THLPGFVEQAEALKAK, peptide start residue: 103) (UniProt P30044)”, the log2 fold change is -0.204.

As for “SHMT1 (peptide sequence: DADLWSSHDK, peptide start residue: 11) (UniProt P34896)”, the log2 fold change was 0.149.

In the case of “STAT3 (peptide sequence: IVARCLWEESR, peptide start residue: 104) (UniProt P40763)”, the log2 fold change was -0.456.

Turning to “ARHGAP25 (peptide sequence: TQTLPNRKCFLTSAFQGANSSK, peptide start residue: 440) (UniProt P42331)”, the log2 fold change stood at 0.141.

As to “PKLR (peptide sequence: IISKIENHEGVK, peptide start residue: 310) (UniProt P30613)”, the log2 fold change turned out to be 0.378.

For the target “PIK3CB (peptide sequence: CKYMDSK, peptide start residue: 776) (UniProt P42338)”, the log2 fold change stood at 0.719.

Regarding “TGFBR2 (peptide sequence: GIAHLHSDHTPCGRPK, peptide start residue: 357) (UniProt P37173)”, the log2 fold change amounted to 0.309.

For the target “UQCRC1 (peptide sequence: SGMFWLR, peptide start residue: 473) (UniProt P31930)”, the log2 fold change was 0.0652.

As for “TALDO1 (peptide sequence: SYEPLEDPGVK, peptide start residue: 205) (UniProt P37837)”, the log2 fold change was determined as 0.11.

In the case of “ECHS1 (peptide sequence: NNTVGLIQLNRPK, peptide start residue: 44) (UniProt P30084)”, the log2 fold change was determined as 0.319.

“MLH1 (peptide sequence: CIFLLFINHR, peptide start residue: 256) (UniProt P40692)”: the log2 fold change was -0.429.

With “MAGEA6 (peptide sequence: ISYPLLHEWALR, peptide start residue: 299) (UniProt P43360)”, the log2 fold change was -0.112.

Regarding “CASP2 (peptide sequence: EGYAPGTEFHR, peptide start residue: 418) (UniProt P42575)”, the log2 fold change is -0.151.

With “SLC19A1 (peptide sequence: AAQALSVQDK, peptide start residue: 480) (UniProt P41440)”, the log2 fold change is -0.0872.

For the target “UniProt P45985 (peptide sequence: GDPPQLSNSEER, peptide start residue: 323)”, the log2 fold change is 0.179.

For the target “WAS (peptide sequence: ADIGAPSGFK, peptide start residue: 236) (UniProt P42768)”, the log2 fold change is 0.134.

Regarding “VHL (peptide sequence: SLVKPENYR, peptide start residue: 168) (UniProt P40337)”, the log2 fold change was determined as 0.0894.

Consider “CDC25C (peptide sequence: FKDNTIPDKVK, peptide start residue: 232) (UniProt P30307)”, for which the log2 fold change was -0.0871.

“CKS2 (peptide sequence: QIYYSDK, peptide start residue: 5) (UniProt P33552)”: the log2 fold change came out at 0.118.

On to “FUS (peptide sequence: KTGQPMINLYTDRETGK, peptide start residue: 316) (UniProt P35637)”, for which the log2 fold change worked out at 0.16.

Turning to “STX2 (peptide sequence: NHSIILSAPNPEGK, peptide start residue: 56) (UniProt P32856)”, the log2 fold change stood at 0.744.

As for “PPM1A (peptide sequence: HNAQGQGNGLR, peptide start residue: 13) (UniProt P35813)”, the log2 fold change is 0.369.

Take “STAT5A (peptide sequence: FKAEVQSNR, peptide start residue: 515) (UniProt P42229)”: the log2 fold change is -0.192.

Take “AGL (peptide sequence: HSPSIHQSVVAVSR, peptide start residue: 735) (UniProt P35573)”: the log2 fold change was 0.435.

As for “UniProt P41223 (peptide sequence: IIECTHCGCRGCSG, peptide start residue: 131)”, the log2 fold change amounted to 0.119.

As to “UniProt P42677 (peptide sequence: KRLVQSPNSYFMDVK, peptide start residue: 22)”, the log2 fold change was -0.681.

As for “SDHA (peptide sequence: GEGGILINSQGER, peptide start residue: 313) (UniProt P31040)”, the log2 fold change was -0.546.

Consider “DCTD (peptide sequence: IVIDFDSINSRPSQK, peptide start residue: 162) (UniProt P32321)”, for which the log2 fold change was determined as 0.141.

“RPL12 (peptide sequence: ALKEPPRDR, peptide start residue: 84) (UniProt P30050)”: the log2 fold change is 0.498.

Consider “GDI1 (peptide sequence: KQNDVFGEAEQ, peptide start residue: 437) (UniProt P31150)”, for which the log2 fold change was 0.00162.

As to “PPP2R1B (peptide sequence: VKELGENLPIEDR, peptide start residue: 318) (UniProt P30154)”, the log2 fold change amounted to 0.173.

For “HNRNPH1 (peptide sequence: THYDPPR, peptide start residue: 193) (UniProt P31943)”, the log2 fold change is -0.0516.

On to “MAGEB1 (peptide sequence: VAHATAAEK, peptide start residue: 27) (UniProt P43366)”, for which the log2 fold change was -0.528.
